# In PubChem BioAssay AID330 (DTP/NCI, 2004):
# The list shows only some results of the screen, not a fair sample: it is rich in T/C values a quarter to a half above the control, in often repeated tests (any T/C) and in doses without a T/C. Other doses and runs of a compound stand elsewhere. T/C: endpoint of the treated group in % of that of the vehicle group. Some entries give survivors of the animals treated and no T/C: the source holds a T/C of zero for them, seemingly a mark for toxic or unscored doses. Some survivor counts are full or nearly so, which does not show that the dose was tolerated: survival well below the control is almost never listed, so the zero probably covers shortened survival too. Counts of survivors are from the toxicity check (mostly the fifth day) where no day follows; animals may have died later. Schedule codes are those of the source, taken here to give the interval after Q, in days (D) or hours (H), and the number of doses after X. Some entries hold several experiments; the values are given in rising order. Where survival is the endpoint, the PubChem record calls one and a half times the control and up active, and a quarter to a half above the control has no call in these data; cut-offs in other NCI protocols can differ. Some T/C values carry the count of animals alive at the toxicity check (mostly the fifth day); without a count, all were alive then. Additions like (4×) count equal records among those shown.
# Test system: P388 leukemia ip, CD2F1 mice, survival T/C
# Experiment: NCI In Vivo Anticancer Drug Screen. Data for tumor model P388 Leukemia (intraperitoneal) in CD2F1 (CDF1) mice
# Details: T/C endpoint: median survival time, higher T/C = longer survival
smiles,measurement,setting,value
CCCCCCCCCCCCCCCC(=O)OCC1OC(n2ccc(N)nc2=O)C(O)C1O (stereo not given),T/C,"dose: 1.0 mg/kg/injection, schedule: Q01DX009 (ip), vehicle: saline with Tween-80",145 % of control
same,T/C,"dose: 3.13 mg/kg/injection, schedule: Q04DX003 (ip), vehicle: saline with Tween-80",145 % of control
same,T/C,"dose: 5.0 mg/kg/injection, schedule: Q01DX001 (ip), vehicle: saline with Tween-80",125 % of control
same,T/C,"dose: 6.25 mg/kg/injection, schedule: Q01DX005 (ip), vehicle: Klucel (hydroxypropylcellulose) (HPC), evaluated on day 30","96, 123, 132, 138, 140, 142, 150, 153, 158, 163, 164, 165 (2×), 166, 170 (2×), 175, 176, 177 (2×), 178, 179, 180, 181, 182, 184, 191, 194, 195, 207 % of control (3×)"
same,T/C,"dose: 6.25 mg/kg/injection, schedule: Q01DX005 (ip), vehicle: Klucel (hydroxypropylcellulose) (HPC), evaluated on day 35",169 % of control [5 of 6 alive]
same,T/C,"dose: 6.25 mg/kg/injection, schedule: Q01DX009 (ip), vehicle: Klucel (hydroxypropylcellulose) (HPC), evaluated on day 30","122, 140, 142, 153, 161, 167, 183, 187, 197, 200 (3×), 202, 204, 205, 209 (3×), 210 (2×), 214, 215 (2×), 222 (2×), 223, 225, 227, 232, 234, 246, 254, 259 % of control"
same,T/C,"dose: 6.25 mg/kg/injection, schedule: Q01DX009 (ip), vehicle: Klucel (hydroxypropylcellulose) (HPC), evaluated on day 35",188 and 228 % of control
same,T/C,"dose: 10.0 mg/kg/injection, schedule: Q01DX001 (ip), vehicle: saline with Tween-80",133 % of control
same,T/C,"dose: 12.5 mg/kg/injection, schedule: Q01DX005 (ip), vehicle: Klucel (hydroxypropylcellulose) (HPC), evaluated on day 30","154, 155, 166, 175, 177, 179, 183, 185, 189, 195 (2×), 196, 197 (2×), 198 [5 of 6 alive], 200, 205, 208, 211, 214, 215, 218, 220, 225, 228, 230, 238, 252 (2×), 262 (2×), 270 % of control"
same,T/C,"dose: 12.5 mg/kg/injection, schedule: Q01DX005 (ip), vehicle: Klucel (hydroxypropylcellulose) (HPC), evaluated on day 35",213 % of control
same,T/C,"dose: 12.5 mg/kg/injection, schedule: Q01DX009 (ip), vehicle: Klucel (hydroxypropylcellulose) (HPC), evaluated on day 30","164, 169, 175, 177, 178, 202, 203, 204 [2 of 3 alive], 210, 218, 222, 225, 225 [5 of 6 alive], 227, 232, 233, 235 (2×), 240, 245 (3×), 247, 250, 253, 258, 260, 263, 265, 266, 267, 302, 316 % of control"
same,T/C,"dose: 12.5 mg/kg/injection, schedule: Q01DX009 (ip), vehicle: Klucel (hydroxypropylcellulose) (HPC), evaluated on day 35",224 and 245 % of control
same,T/C,"dose: 18.75 mg/kg/injection, schedule: Q04DX002 (ip), vehicle: Klucel (hydroxypropylcellulose) (HPC), evaluated on day 30","132, 142, 145, 163, 171, 174, 175, 178, 183 (2×), 184, 185, 186, 187, 190, 192, 195, 197 (2×), 201, 204, 205, 207, 209 (2×), 211, 212, 218, 222, 243, 258 % of control"
same,T/C,"dose: 18.75 mg/kg/injection, schedule: Q04DX002 (ip), vehicle: Klucel (hydroxypropylcellulose) (HPC), evaluated on day 35","159, 177, 182 % of control"
same,survivor count,"dose: 18.75 mg/kg/injection, schedule: Q04DX002 (ip), vehicle: Klucel (hydroxypropylcellulose) (HPC)",3 of 3 and 6 of 6
same,T/C,"dose: 18.75 mg/kg/injection, schedule: Q04DX003 (ip), vehicle: Klucel (hydroxypropylcellulose) (HPC)","145, 159, 166, 169 [2 of 3 alive], 172, 197, 202 (2×), 203, 204, 210 (2×), 211, 216 (5×), 219 [5 of 6 alive], 222, 223, 224, 235 (3×), 236, 240, 243, 245 (2×), 250, 254, 255, 259 % of control"
same,T/C,"dose: 25.0 mg/kg/injection, schedule: Q01DX005 (ip), vehicle: Klucel (hydroxypropylcellulose) (HPC), evaluated on day 30","105, 184, 190, 194, 195 (2×), 197, 200, 214, 215, 223 (2×), 233, 234, 236, 237, 238, 241 [2 of 3 alive], 243 (2×), 247, 252, 252 [2 of 3 alive], 255, 267 (2×), 272 (2×), 273, 276, 277, 288 % of control"
same,T/C,"dose: 25.0 mg/kg/injection, schedule: Q01DX005 (ip), vehicle: Klucel (hydroxypropylcellulose) (HPC), evaluated on day 35",276 % of control
same,T/C,"dose: 25.0 mg/kg/injection, schedule: Q01DX009 (ip), vehicle: Klucel (hydroxypropylcellulose) (HPC), evaluated on day 30","168, 176, 180 [5 of 6 alive], 186 [5 of 6 alive], 192, 206, 212, 216, 225, 229, 237, 241, 245, 250 (2×), 256 (2×), 258 (2×), 263, 265, 265 [5 of 6 alive], 267, 274, 277, 278, 280, 290, 291, 294, 303, 322, 333 % of control"
same,T/C,"dose: 25.0 mg/kg/injection, schedule: Q01DX009 (ip), vehicle: Klucel (hydroxypropylcellulose) (HPC), evaluated on day 35",288 and 332 % of control
same,T/C,"dose: 30.0 mg/kg/injection, schedule: Q01DX009 (ip), vehicle: saline with Tween-80",140 % of control
same,T/C,"dose: 31.25 mg/kg/injection, schedule: Q01DX001 (ip), vehicle: Klucel (hydroxypropylcellulose) (HPC)","100, 147, 164 [5 of 6 alive], 179, 190, 192, 216, 232 (2×), 234 % of control"
same,survivor count,"dose: 31.7 mg/kg/injection, schedule: Q01DX001 (ip), vehicle: Klucel (hydroxypropylcellulose) (HPC)",6 of 6
same,T/C,"dose: 31.75 mg/kg/injection, schedule: Q01DX001 (ip), vehicle: Klucel (hydroxypropylcellulose) (HPC)","105, 112, 121, 123, 148, 156, 163, 169 (2×), 171, 178, 183, 193, 198, 204, 205, 227, 229, 230, 247 % of control"
same,T/C,"dose: 37.5 mg/kg/injection, schedule: Q04DX002 (ip), vehicle: Klucel (hydroxypropylcellulose) (HPC), evaluated on day 30","119, 129, 152, 189, 194, 195 [2 of 3 alive], 200, 204, 213, 214 (2×), 216, 219, 220, 225 [5 of 6 alive], 229, 230, 231 (2×), 232, 240 (2×), 243, 245, 248, 251, 254, 258, 260, 266, 269 % of control"
same,T/C,"dose: 37.5 mg/kg/injection, schedule: Q04DX002 (ip), vehicle: Klucel (hydroxypropylcellulose) (HPC), evaluated on day 35",195 (2×) and 214 % of control
same,survivor count,"dose: 37.5 mg/kg/injection, schedule: Q04DX002 (ip), vehicle: Klucel (hydroxypropylcellulose) (HPC)",5 of 6 and 3 of 3
same,T/C,"dose: 37.5 mg/kg/injection, schedule: Q04DX003 (ip), vehicle: Klucel (hydroxypropylcellulose) (HPC)","170 [2 of 3 alive], 176, 184, 186, 204, 213 (2×), 214, 233, 240, 243, 245, 247 (2×), 252, 253, 257, 258, 259 (2×), 265, 267, 268, 270 (2×), 273, 280, 281, 282, 288 (4×), 295 % of control"
same,T/C,"dose: 50.0 mg/kg/injection, schedule: Q01DX005 (ip), vehicle: Klucel (hydroxypropylcellulose) (HPC), evaluated on day 30","102, 115, 147, 171, 209, 212, 218, 223, 241, 245, 253, 262, 265, 267, 269, 270, 272, 275 (3×), 277, 280, 285 (2×), 288, 288 [5 of 6 alive], 291 % of control"
same,T/C,"dose: 50.0 mg/kg/injection, schedule: Q01DX005 (ip), vehicle: Klucel (hydroxypropylcellulose) (HPC), evaluated on day 35",368 % of control
same,survivor count,"dose: 50.0 mg/kg/injection, schedule: Q01DX005 (ip), vehicle: Klucel (hydroxypropylcellulose) (HPC)",3 of 3 and 6 of 6
same,T/C,"dose: 50.0 mg/kg/injection, schedule: Q01DX009 (ip), vehicle: Klucel (hydroxypropylcellulose) (HPC), evaluated on day 30","89, 99, 102, 104 (2×), 105, 107, 110 (2×), 114 (2×), 116, 126, 127, 130, 132, 141, 185, 219, 240, 243, 251, 274, 288 % of control"
same,T/C,"dose: 50.0 mg/kg/injection, schedule: Q01DX009 (ip), vehicle: Klucel (hydroxypropylcellulose) (HPC), evaluated on day 35",102 and 321 % of control
same,survivor count,"dose: 50.0 mg/kg/injection, schedule: Q01DX009 (ip), vehicle: Klucel (hydroxypropylcellulose) (HPC)","5 of 6, 2 of 2, 3 of 3, 6 of 6"
same,T/C,"dose: 62.5 mg/kg/injection, schedule: Q01DX001 (ip), vehicle: Klucel (hydroxypropylcellulose) (HPC)","96, 100, 132, 137, 142, 157, 193, 203 (3×), 204, 215, 220, 221 (2×), 222, 226, 236, 237, 240 (2×), 248, 250, 252 (2×), 257 (2×), 260, 265, 269, 289 % of control"
